Measurements published in US20120135912A1 (PERSEID THERAPEUTICS, published 2012).
Results are given in words; binding and its absence hold for the method and conditions named. Some results given as binding are weak or reduced against the parent protein; the word gives no strength.

Target: human LPAM-1-Fc (alpha4-Fc/beta7-Fc heterodimer) (human)
Experiment: SPR (BIACORE) as in Example 12, polypeptide purified from E. coli as analyte on captured LPAM-1-Fc; KD drawn as bars (Example 20)

binding: binds
B1: R1R3R5 (ligand)
2D-VCAM-1 variant polypeptide: MFKIETTPESRYLAQIGDSVSLTCSTTGCESPFFFWRTLIDSPLNGKVTNEGTTSTLTMNPVSFGNEHSYLCTARCESRSLEKGIQVEIYSFPKDPEIHLSGPLEAGKPITVKCSVADVYPFDRLEIDLLKGDHLMKSQEFLEDADRKSLETKSLEVTFTPVIEDIGKVLVCRAKLHIDEMDSVPTVRQAVKELQVYISP
